The record followed here is publication PMC10604535.

Sequences of proteins named here, by UniProt entry; tags and fusion partners are left off.
UniProt Q92793: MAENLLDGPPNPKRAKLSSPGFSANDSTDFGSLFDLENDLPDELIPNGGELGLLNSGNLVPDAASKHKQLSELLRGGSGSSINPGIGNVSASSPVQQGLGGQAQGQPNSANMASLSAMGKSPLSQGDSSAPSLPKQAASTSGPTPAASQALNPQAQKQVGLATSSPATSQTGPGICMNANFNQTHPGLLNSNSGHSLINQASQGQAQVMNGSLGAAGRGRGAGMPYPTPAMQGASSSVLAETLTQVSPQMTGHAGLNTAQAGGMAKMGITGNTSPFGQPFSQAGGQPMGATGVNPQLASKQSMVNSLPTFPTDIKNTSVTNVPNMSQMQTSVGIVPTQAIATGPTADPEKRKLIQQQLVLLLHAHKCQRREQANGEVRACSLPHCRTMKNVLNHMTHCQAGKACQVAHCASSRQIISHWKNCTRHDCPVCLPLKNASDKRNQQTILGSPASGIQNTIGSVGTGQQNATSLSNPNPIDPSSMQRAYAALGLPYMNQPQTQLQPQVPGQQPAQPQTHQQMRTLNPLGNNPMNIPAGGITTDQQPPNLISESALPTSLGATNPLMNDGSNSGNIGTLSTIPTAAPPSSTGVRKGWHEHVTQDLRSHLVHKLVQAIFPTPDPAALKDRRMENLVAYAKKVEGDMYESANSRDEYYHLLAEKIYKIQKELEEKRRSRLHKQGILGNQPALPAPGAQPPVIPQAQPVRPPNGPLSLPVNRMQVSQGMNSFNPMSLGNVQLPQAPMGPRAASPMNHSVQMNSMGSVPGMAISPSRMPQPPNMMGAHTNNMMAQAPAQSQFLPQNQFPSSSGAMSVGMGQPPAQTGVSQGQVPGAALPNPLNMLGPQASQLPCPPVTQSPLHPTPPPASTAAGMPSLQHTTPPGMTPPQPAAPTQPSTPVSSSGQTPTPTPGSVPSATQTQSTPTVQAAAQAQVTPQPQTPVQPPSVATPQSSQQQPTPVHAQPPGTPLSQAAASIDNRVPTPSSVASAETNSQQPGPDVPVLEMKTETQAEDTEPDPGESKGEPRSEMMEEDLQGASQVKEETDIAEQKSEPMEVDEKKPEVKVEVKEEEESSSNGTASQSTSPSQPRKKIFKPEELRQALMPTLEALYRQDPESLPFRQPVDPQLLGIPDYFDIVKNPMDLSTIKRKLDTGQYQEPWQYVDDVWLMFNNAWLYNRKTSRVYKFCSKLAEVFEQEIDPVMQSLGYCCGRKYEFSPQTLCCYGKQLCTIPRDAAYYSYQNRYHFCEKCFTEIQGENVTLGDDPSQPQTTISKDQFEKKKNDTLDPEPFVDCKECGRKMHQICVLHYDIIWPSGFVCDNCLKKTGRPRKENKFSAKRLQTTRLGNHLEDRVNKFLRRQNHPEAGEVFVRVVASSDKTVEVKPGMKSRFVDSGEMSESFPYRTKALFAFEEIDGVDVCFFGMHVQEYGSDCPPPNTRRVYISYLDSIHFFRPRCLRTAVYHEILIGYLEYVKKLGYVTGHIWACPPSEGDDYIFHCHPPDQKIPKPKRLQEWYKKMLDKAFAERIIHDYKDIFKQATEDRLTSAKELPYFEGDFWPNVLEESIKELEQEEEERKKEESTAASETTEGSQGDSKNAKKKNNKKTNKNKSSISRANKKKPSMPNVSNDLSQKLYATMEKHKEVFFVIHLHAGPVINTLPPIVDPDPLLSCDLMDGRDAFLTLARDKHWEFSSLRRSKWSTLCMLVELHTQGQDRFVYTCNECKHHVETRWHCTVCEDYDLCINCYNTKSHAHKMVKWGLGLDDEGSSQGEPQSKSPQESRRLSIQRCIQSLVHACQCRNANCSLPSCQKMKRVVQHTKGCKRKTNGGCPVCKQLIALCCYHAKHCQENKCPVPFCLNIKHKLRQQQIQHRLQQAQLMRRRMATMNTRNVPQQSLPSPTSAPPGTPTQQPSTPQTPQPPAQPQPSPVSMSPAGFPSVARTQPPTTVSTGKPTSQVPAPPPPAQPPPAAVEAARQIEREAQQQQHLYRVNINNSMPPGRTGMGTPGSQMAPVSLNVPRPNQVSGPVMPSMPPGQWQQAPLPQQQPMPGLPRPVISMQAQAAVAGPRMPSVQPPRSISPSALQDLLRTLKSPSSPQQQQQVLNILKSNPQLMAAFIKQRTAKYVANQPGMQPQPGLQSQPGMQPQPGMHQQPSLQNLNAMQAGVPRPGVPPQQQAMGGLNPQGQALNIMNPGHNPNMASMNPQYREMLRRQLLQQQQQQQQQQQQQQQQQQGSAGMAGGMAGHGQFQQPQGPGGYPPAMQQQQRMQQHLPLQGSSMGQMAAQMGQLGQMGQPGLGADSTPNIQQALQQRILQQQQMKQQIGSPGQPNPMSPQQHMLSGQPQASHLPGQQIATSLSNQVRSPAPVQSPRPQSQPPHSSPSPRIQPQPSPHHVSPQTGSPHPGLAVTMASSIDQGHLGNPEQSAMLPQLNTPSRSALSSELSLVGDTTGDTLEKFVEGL
UniProt P16220: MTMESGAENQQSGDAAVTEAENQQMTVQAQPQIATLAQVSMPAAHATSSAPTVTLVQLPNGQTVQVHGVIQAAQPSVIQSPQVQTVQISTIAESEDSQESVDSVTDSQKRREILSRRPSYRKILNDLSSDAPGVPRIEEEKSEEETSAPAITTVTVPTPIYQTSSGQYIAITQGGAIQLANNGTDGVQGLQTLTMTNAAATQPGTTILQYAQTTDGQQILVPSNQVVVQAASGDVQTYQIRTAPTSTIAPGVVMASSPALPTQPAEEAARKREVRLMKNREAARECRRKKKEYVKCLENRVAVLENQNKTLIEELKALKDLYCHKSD

For the assay, the target named is CREB-binding protein (CBP) (human (endogenous in 293T)) (UniProt Q92793). Kind of assay: co-IP; 293T cells transfected with or without CRTC2-Flag plasmid for 48 h; RIPA lysate; IP with CBP antibody (normal mouse IgG as control) overnight at 4 °C, Protein A/G agarose, PBS washes; immunoblot.

Results are given in words; binding and its absence hold for the method and conditions named. In cells and extracts the contact can be indirect. Some results given as binding are weak or reduced against the parent protein; the word gives no strength.

Turning to “cAMP response element-binding protein (CREB) (from UniProt P16220 1-327)”, the binding result is recorded as “binds”.
